Measured values from paper PMC2386117.
For at least one entry, the source does not settle the construct or the ends of the probe. Results from cells or extracts need not show a direct contact. At least one verdict was read from the data and is not stated in words by the source.

Sequences of proteins named here, by UniProt entry; tags and fusion partners are left off. A change or cut given only in a name is not applied to a line headed by its entry.
UniProt P13010: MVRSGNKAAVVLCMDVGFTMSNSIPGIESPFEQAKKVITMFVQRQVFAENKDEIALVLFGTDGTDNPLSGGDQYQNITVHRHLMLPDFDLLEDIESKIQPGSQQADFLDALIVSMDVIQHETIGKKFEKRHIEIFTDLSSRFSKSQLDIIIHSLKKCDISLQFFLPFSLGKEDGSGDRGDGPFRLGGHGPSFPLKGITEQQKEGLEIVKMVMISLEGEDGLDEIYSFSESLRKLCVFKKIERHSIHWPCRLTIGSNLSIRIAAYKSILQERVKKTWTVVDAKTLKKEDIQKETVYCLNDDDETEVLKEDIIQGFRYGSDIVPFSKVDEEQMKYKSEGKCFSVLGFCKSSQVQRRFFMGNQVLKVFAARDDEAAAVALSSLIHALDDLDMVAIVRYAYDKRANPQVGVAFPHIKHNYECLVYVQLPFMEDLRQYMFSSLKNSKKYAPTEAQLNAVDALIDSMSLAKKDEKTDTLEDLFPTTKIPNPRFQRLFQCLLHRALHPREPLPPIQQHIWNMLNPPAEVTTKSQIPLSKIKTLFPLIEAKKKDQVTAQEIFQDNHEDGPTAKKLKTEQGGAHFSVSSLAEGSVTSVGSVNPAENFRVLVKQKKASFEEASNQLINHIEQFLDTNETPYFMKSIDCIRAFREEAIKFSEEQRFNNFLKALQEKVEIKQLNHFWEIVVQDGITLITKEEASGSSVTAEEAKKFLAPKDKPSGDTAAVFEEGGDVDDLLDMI

Target: Ku86 (full-length, 86 kDa) (human) (UniProt P13010)
Assay: EMSA
Conditions: CESS cell extract, only full-length Ku86 complex found; 4 ug extract, 20 fmol biotin-DNA in 20 uL, 2.5% glycerol, 5 mM MgCl2, 50 ng/uL poly(dI-dC), 0.05% NP-40, room temperature 30 min; 5% native PAGE in 0.5x TBE; protein in an extract; residues 1-732; label: biotin at 5' ends (unlabeled as competitor)

Sequence: ACTTGATTAGTTACGTAACGTTATG (double strand) [25-bp Ku86 binding oligonucleotide]
- binding result: binds
